Data as given in PubChem BioAssay AID1259405 (NCATS, 2018).

Aim: 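Knock-downs that lift recombinant protein yield in hamster ovary cells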 (primary screen)
Cell system: Chinese hamster CHO-K1 ovary cells with stable secreted eGFP expression
Knock-down reagent: single siRNA against mouse genes, 0.8 pmol siRNA per well (2 µl of 400 nM stock)
Duration: 3 days
Read-out: 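Per-well intracellular GFP measured by laser scanning cytometry, plus viability from ATP luminescence, each relative to plate median of non-targeting control wells, in %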
Direction: GFP, % of control: higher = more GFP per well, higher productivity; viability (ATP), % of control: higher = more viable cells (more ATP)
Active means: 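a knock-down is called active if GFP reaches 120% or more of non-targeting control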
The whole screen tested about 50,000 reagents; below is an unselected part. About 4,000 of all reagents (8%) count as active. 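Mouse siRNA library applied to hamster cells; one well for each siRNA.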

{"gene": "Trem4", "PubChem SID": "SID363542815", "GFP, % of control": 75.2, "viability (ATP), % of control": 74.2, "call": "inactive"}
{"gene": "Trem4", "PubChem SID": "SID363546332", "GFP, % of control": 199, "viability (ATP), % of control": 57.5, "call": "active"}
{"gene": "Trem4", "PubChem SID": "SID363548088", "GFP, % of control": 68.8, "viability (ATP), % of control": 88.9, "call": "inactive"}
{"gene": "Ntng1", "PubChem SID": "SID363553577", "GFP, % of control": 42.2, "viability (ATP), % of control": 34.8, "call": "inactive"}
{"gene": "Ntng1", "PubChem SID": "SID363561534", "GFP, % of control": 95.6, "viability (ATP), % of control": 91.8, "call": "inactive"}
{"gene": "Ntng1", "PubChem SID": "SID363565272", "GFP, % of control": 79.1, "viability (ATP), % of control": 62.2, "call": "inactive"}
{"gene": "Cspp1", "PubChem SID": "SID363542373", "GFP, % of control": 60.3, "viability (ATP), % of control": 45, "call": "inactive"}
{"gene": "Cspp1", "PubChem SID": "SID363551864", "GFP, % of control": 76.4, "viability (ATP), % of control": 66.9, "call": "inactive"}
{"gene": "Cspp1", "PubChem SID": "SID363559469", "GFP, % of control": 116, "viability (ATP), % of control": 87.2, "call": "inactive"}
{"gene": "Defb39", "PubChem SID": "SID363539704", "GFP, % of control": 55.4, "viability (ATP), % of control": 85.2, "call": "inactive"}
{"gene": "Defb39", "PubChem SID": "SID363561005", "GFP, % of control": 133, "viability (ATP), % of control": 101, "call": "active"}
{"gene": "Defb39", "PubChem SID": "SID363565095", "GFP, % of control": 61.1, "viability (ATP), % of control": 62.3, "call": "inactive"}
{"gene": "Slfn2", "PubChem SID": "SID363555105", "GFP, % of control": 60.3, "viability (ATP), % of control": 80, "call": "inactive"}
{"gene": "Slfn2", "PubChem SID": "SID363568552", "GFP, % of control": 63.2, "viability (ATP), % of control": 78.4, "call": "inactive"}
{"gene": "Slfn2", "PubChem SID": "SID363586611", "GFP, % of control": 83.8, "viability (ATP), % of control": 49.3, "call": "inactive"}
{"gene": "Spag7", "PubChem SID": "SID363554954", "GFP, % of control": 165, "viability (ATP), % of control": 108, "call": "active"}
{"gene": "Spag7", "PubChem SID": "SID363568401", "GFP, % of control": 10.7, "viability (ATP), % of control": 101, "call": "inactive"}
{"gene": "Spag7", "PubChem SID": "SID363586460", "GFP, % of control": 63.7, "viability (ATP), % of control": 67.4, "call": "inactive"}
{"gene": "Snrpc", "PubChem SID": "SID363554849", "GFP, % of control": 117, "viability (ATP), % of control": 61.6, "call": "inactive"}
{"gene": "Snrpc", "PubChem SID": "SID363568296", "GFP, % of control": 25.9, "viability (ATP), % of control": 54.3, "call": "inactive"}
{"gene": "Snrpc", "PubChem SID": "SID363586355", "GFP, % of control": 49.8, "viability (ATP), % of control": 57.5, "call": "inactive"}
{"gene": "Rnf215", "PubChem SID": "SID363541673", "GFP, % of control": 51.5, "viability (ATP), % of control": 69.4, "call": "inactive"}
{"gene": "Rnf215", "PubChem SID": "SID363553265", "GFP, % of control": 47.8, "viability (ATP), % of control": 48.1, "call": "inactive"}
{"gene": "Rnf215", "PubChem SID": "SID363566589", "GFP, % of control": 46.5, "viability (ATP), % of control": 62, "call": "inactive"}
{"gene": "Tead4", "PubChem SID": "SID363573714", "GFP, % of control": 80.7, "viability (ATP), % of control": 91, "call": "inactive"}
{"gene": "Tead4", "PubChem SID": "SID363581458", "GFP, % of control": 83.6, "viability (ATP), % of control": 59.1, "call": "inactive"}
{"gene": "Tead4", "PubChem SID": "SID363583922", "GFP, % of control": 83.8, "viability (ATP), % of control": 96.7, "call": "inactive"}
{"gene": "Prkd1", "PubChem SID": "SID363571036", "GFP, % of control": 65.9, "viability (ATP), % of control": 72.1, "call": "inactive"}
{"gene": "Fem1a", "PubChem SID": "SID363540124", "GFP, % of control": 74.3, "viability (ATP), % of control": 92.4, "call": "inactive"}
{"gene": "Fem1a", "PubChem SID": "SID363561425", "GFP, % of control": 68.4, "viability (ATP), % of control": 107, "call": "inactive"}
{"gene": "Fem1a", "PubChem SID": "SID363564461", "GFP, % of control": 103, "viability (ATP), % of control": 65.8, "call": "inactive"}
{"gene": "Actl7b", "PubChem SID": "SID363572461", "GFP, % of control": 57.6, "viability (ATP), % of control": 52, "call": "inactive"}
{"gene": "Actl7b", "PubChem SID": "SID363574221", "GFP, % of control": 72.1, "viability (ATP), % of control": 90.6, "call": "inactive"}
{"gene": "Slc17a6", "PubChem SID": "SID363574682", "GFP, % of control": 83.2, "viability (ATP), % of control": 94.8, "call": "inactive"}
{"gene": "Slc17a6", "PubChem SID": "SID363575738", "GFP, % of control": 68.1, "viability (ATP), % of control": 61.5, "call": "inactive"}
{"gene": "Slc17a6", "PubChem SID": "SID363580314", "GFP, % of control": 66.7, "viability (ATP), % of control": 63.7, "call": "inactive"}
{"gene": "Sepsecs", "PubChem SID": "SID363539497", "GFP, % of control": 48.7, "viability (ATP), % of control": 59.3, "call": "inactive"}
{"gene": "Sepsecs", "PubChem SID": "SID363560798", "GFP, % of control": 68, "viability (ATP), % of control": 59.4, "call": "inactive"}
{"gene": "Sepsecs", "PubChem SID": "SID363564888", "GFP, % of control": 85.9, "viability (ATP), % of control": 72, "call": "inactive"}
{"gene": "Tuba3b", "PubChem SID": "SID363572444", "GFP, % of control": 104, "viability (ATP), % of control": 58.8, "call": "inactive"}
{"gene": "Tuba3b", "PubChem SID": "SID363574204", "GFP, % of control": 103, "viability (ATP), % of control": 70.4, "call": "inactive"}

Laid out differently: 7 of the entries above.
Fem1a [SID363564461]
- GFP, % of control: 103
- viability (ATP), % of control: 65.8
- call: inactive

Actl7b [SID363572461]
- GFP, % of control: 57.6
- viability (ATP), % of control: 52
- call: inactive

Actl7b [SID363574221]
- GFP, % of control: 72.1
- viability (ATP), % of control: 90.6
- call: inactive

Slc17a6 [SID363574682]
- GFP, % of control: 83.2
- viability (ATP), % of control: 94.8
- call: inactive

Slc17a6 [SID363575738]
- GFP, % of control: 68.1
- viability (ATP), % of control: 61.5
- call: inactive

Slc17a6 [SID363580314]
- GFP, % of control: 66.7
- viability (ATP), % of control: 63.7
- call: inactive

Sepsecs [SID363539497]
- GFP, % of control: 48.7
- viability (ATP), % of control: 59.3
- call: inactive
